Test results reported in patent US20160244486A1, “AB Modulating Peptides” (ALZHYME PTY LTD, priority 2013, published 2016).
Part of at least one peptide drawing is inferred or uncertain, most often the ends. Square brackets hold non-standard residues; d marks the D form. Peptide text beside a SMILES is read from it. ξ: configuration not given here. ξT = CC(O)C(N)C(=O)O

Protein sequences, listed by entry. Tags and fused reporters are not part of them. Residues count along the entry.
UniProt P05067, 672-713 limits assumed: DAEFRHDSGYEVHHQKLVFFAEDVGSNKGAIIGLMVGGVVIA

Biological target: T1, oAβ42 (Homo sapiens, UniProt P05067)
T1 construct: Alexa488-labeled oAβ42 was prepared as described in Jungbauer
Assay: Coimmunoprecipitation of TMR-labelled 15M S.A. with Alexa488-labelled oAβ42
Format: binding
Settings: increasing quantities of unlabelled peptide in solution

With `CSCC[C@@H](NC(=O)[C@@H](CC(C)C)NC(=O)[C@@H](CCCCN)NC(=O)[C@H](N)CCCNC(=N)N)C(=O)N[C@H](CCC(N)=O)C(=O)N1CCC[C@@H]1C(=O)NC(C(=O)N[C@H](CCCNC(=N)N)C(=O)N[C@H](CC(N)=O)C(=O)N[C@H](CCCNC(=N)N)C(=O)N[C@H](CCCNC(=N)N)C(=O)N[C@H](CC(N)=O)C(=O)N1CCC[C@@H]1C(=O)N[C@H](CC(N)=O)C(=O)NC(C(=O)O)C(C)O)C(C)O` (stereo partly drawn) [RI-ANA1, Arg-Lys-Leu-Met-Gln-Pro-Thr-Arg-Asn-Arg-Arg-Asn-Pro-Asn-Thr] (H-[dR][dK][dL][dM][dQ][dP][ξT][dR][dN][dR][dR][dN][dP][dN][ξT]-OH; N-terminus and C-terminus assumed) the “amount of labelled coimmunoprecipitated 15M S.A. under competition with unlabelled peptide” value was “could be reduced by competition”.
